{"sequences": {"note": "Chains of the proteins cited; added tags and fusions are not shown. Residues count along the entry.", "UniProt P21803, 22-707 isoform P21803-2 limits assumed": "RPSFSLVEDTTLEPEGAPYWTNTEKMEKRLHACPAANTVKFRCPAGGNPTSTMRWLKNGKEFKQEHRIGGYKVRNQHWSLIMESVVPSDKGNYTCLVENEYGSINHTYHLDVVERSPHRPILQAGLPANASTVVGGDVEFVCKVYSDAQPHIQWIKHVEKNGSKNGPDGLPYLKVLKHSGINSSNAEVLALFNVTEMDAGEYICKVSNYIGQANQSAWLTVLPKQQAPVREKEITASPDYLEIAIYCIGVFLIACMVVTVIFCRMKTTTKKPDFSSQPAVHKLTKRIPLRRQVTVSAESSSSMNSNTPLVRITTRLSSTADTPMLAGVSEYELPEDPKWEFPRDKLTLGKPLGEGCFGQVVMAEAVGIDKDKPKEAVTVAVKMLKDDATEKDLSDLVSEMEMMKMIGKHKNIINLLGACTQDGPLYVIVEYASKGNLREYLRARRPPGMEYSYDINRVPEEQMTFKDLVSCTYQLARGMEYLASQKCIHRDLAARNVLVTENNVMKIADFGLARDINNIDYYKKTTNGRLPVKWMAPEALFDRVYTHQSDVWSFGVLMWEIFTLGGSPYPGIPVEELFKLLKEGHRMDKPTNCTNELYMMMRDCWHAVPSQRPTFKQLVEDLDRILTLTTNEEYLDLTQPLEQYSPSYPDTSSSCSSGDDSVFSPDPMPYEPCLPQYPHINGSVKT"}, "source": "patent US5578566A", "about": "“KGF receptor-derived antagonists of KGF binding” (The United States of America as represented by the …, priority 1993, dated 1996)", "key": {"[1]": {"tested_on": "KGF-stimulated DNA synthesis in Balb/MK cells", "experiment": "[3H]-thymidine incorporation, KGF-induced DNA synthesis in Balb/MK cells", "assay_type": "cell-based", "details": "KGF 1 ng/ml, read-out: 50% inhibition of KGF-stimulated DNA synthesis"}, "[2]": {"tested_on": "aFGF-induced DNA synthesis in Balb/MK cells", "experiment": "[3H]-thymidine incorporation, aFGF-induced DNA synthesis in Balb/MK cells", "assay_type": "cell-based", "details": "aFGF 3 ng/ml, read-out: 50% inhibition of aFGF-induced DNA synthesis"}, "[3]": {"tested_on": "EGF-induced DNA synthesis in Balb/MK cells", "experiment": "[3H]-thymidine incorporation, EGF-induced DNA synthesis in Balb/MK cells", "assay_type": "cell-based", "details": "EGF 3 ng/ml"}, "[4]": {"tested_on": "bFGF mitogenic activity in Balb/MK cells", "experiment": "[3H]-thymidine incorporation, bFGF mitogenic activity in Balb/MK cells", "assay_type": "cell-based", "details": "data not shown"}, "[5]": {"biological_target": "T1, KGF receptor (KGFR) (Mus musculus, UniProt P21803)", "T1 construct": "expressed in transfected cells; host or cells: NIH/3T3", "experiment": "[125I]-KGF binding to NIH/3T3 cells overexpressing KGFR (competition)", "details": "NIH3T3/KGFR transfectants", "procedure": "Values shown are the mean of triplicate samples. Results are representative of three separate experiments.\n[^125 I]-KGF binding to NIH/3T3 cells overexpressing KGFR was measured as described in Bottaro et al., supra. Competition studies were performed with unlabeled KGF or peptides as indicated."}, "[6]": {"biological_target": "T1, KGF receptor (KGFR)", "experiment": "Binding of radiolabeled aFGF to NIH3T3/KGFR transfectants", "details": "data not shown"}, "[7]": {"tested_on": "aFGF-induced mitogenesis in NIH/3T3 fibroblasts (FGFR-1)", "experiment": "[3H]-thymidine incorporation, aFGF-induced DNA synthesis in NIH/3T3 cells", "assay_type": "cell-based", "details": "compared with Balb/MK cells"}, "[8]": {"tested_on": "bFGF-induced mitogenesis in NIH/3T3 cells (FGFR-1)", "experiment": "[3H]-thymidine incorporation, bFGF-induced DNA synthesis in NIH/3T3 cells", "assay_type": "cell-based"}, "[9]": {"biological_target": "T2, KGF (Homo sapiens, UniProt P21781)", "T2 construct": "made in house", "T2 sequence (P21781 32-194)": "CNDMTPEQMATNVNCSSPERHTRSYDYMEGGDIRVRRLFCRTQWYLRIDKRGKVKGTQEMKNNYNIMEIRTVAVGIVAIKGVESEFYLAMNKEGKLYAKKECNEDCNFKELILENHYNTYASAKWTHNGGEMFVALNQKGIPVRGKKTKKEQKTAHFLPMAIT", "experiment": "Covalent affinity crosslinking and SDS-PAGE of [125I]-KGF complexes", "assay_type": "binding", "details": "data not shown"}, "[10]": {"experiment": "Binding of peptide to heparin", "details": "data not shown"}}, "note": "Not every detail of the peptide structures is certain; ends, links or a residue may be inferred. No end group written: not given here."}
{"sequence": "HSGINSSNAEVLALFNVTEM [peptide 367]", "values": [{"measurement": "IC50", "setting": "[1]", "result": "~1600", "unit": "nM"}, {"measurement": "IC50", "setting": "[2]", "result": "~3000", "unit": "nM"}, {"measurement": "inhibition of mitogenic activity of EGF", "setting": "[3]", "result": "Neither peptide significantly inhibited"}, {"measurement": "inhibition of mitogenic activity of bFGF", "setting": "[4]", "result": "Neither peptide significantly inhibited"}, {"measurement": "competition for [125I]-KGF binding", "setting": "[5]", "result": "competed specifically"}, {"measurement": "excess relative to the concentration of unlabeled KGF required for 50% displacement", "setting": "[5]", "result": "10,000 fold"}, {"measurement": "blocking of binding of radiolabeled aFGF to KGFR transfectants", "setting": "[6]", "result": "blocked"}, {"measurement": "blocking of aFGF-induced mitogenesis", "setting": "[7]", "result": "as effective"}, {"measurement": "blocking of bFGF-induced mitogenesis", "setting": "[8]", "result": "neither peptide blocked"}, {"measurement": "[125I]-KGF/peptide complex by covalent affinity crosslinking and SDS-PAGE", "setting": "[9]", "result": "could be detected"}, {"measurement": "displacement of [125I]-KGF from a crosslinked complex with 1G4", "setting": "[9]", "result": "specifically displaced"}]}
{"sequence": "HSGINSSNAEVLALFNVTEMDAGEY [peptide 412]", "values": [{"measurement": "IC50", "setting": "[1]", "result": "~1600", "unit": "nM"}, {"measurement": "IC50", "setting": "[2]", "result": "~3000", "unit": "nM"}, {"measurement": "inhibition of mitogenic activity of EGF", "setting": "[3]", "result": "Neither peptide significantly inhibited"}, {"measurement": "inhibition of mitogenic activity of bFGF", "setting": "[4]", "result": "Neither peptide significantly inhibited"}, {"measurement": "blocking of aFGF-induced mitogenesis", "setting": "[7]", "result": "as effective"}, {"measurement": "blocking of bFGF-induced mitogenesis", "setting": "[8]", "result": "neither peptide blocked"}, {"measurement": "binding to heparin", "setting": "[10]", "result": "does not bind to heparin"}]}
